The results in this text go back to patent US20170290886.

Amino acid sequences for entries named in this document (tags omitted). A change or cut given only in a name is not applied to a line headed by its entry.
UniProt P15337: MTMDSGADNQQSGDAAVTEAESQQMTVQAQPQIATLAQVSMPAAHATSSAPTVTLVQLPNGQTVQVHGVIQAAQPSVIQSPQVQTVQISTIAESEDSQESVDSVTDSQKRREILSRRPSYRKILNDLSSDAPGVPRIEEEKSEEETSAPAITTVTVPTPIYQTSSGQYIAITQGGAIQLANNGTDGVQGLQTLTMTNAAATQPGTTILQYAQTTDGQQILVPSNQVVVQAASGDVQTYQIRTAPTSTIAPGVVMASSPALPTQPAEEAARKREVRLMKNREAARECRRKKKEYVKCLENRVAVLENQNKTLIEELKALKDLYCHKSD

For at least one entry, the source does not settle the construct or the ends of the probe. Where cells or extracts were used, other partners may take part.

This series deals with CREB (Rattus norvegicus) (UniProt P15337). Put plainly: pull-down. The note with it: increased by MeCP2 WT and further by MeCP2-SUMO1 fusion, decreased by MeCP2 K412R transfection; poly dI-dC, 4 C; protein in an extract; protein details: endogenous, hippocampal CA1 lysate; label: 5' biotin on sense strand.

Take “AGAGATTGCCTGACGTCAGAGAGCTAGGATTGCCTGACGTCAGAGAGCTAG (double strand) [2x CRE oligo]”: the binding result was “binds”.
